PubChem BioAssay AID504786, Drosophila RNAi Screening Center, 2011
Purpose: 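Positive regulators of HIF-driven reporter output in Drosophila cells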 (primary screen). System: Drosophila S2 cells with a stable HIF luciferase reporter. Knock-down reagent: long dsRNA against Drosophila genes, about 0.2 µg dsRNA per well of a 384-well plate. Duration: three days of knock-down, then 20 h of DFO before reading. Conditions: desferrioxamine (DFO) at 100 µM, an iron chelator that mimics hypoxia, for 20 h. Measured: 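HIF reporter luminescence in cells given 100 µM DFO for 20 h, using the mouse ldh-a hypoxia-response element, scored as per-plate z-scores; higher means greater loss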. Direction: z-score: higher = stronger loss of HIF reporter signal.
The deposit covers about 21,000 reagents; this is a random part of those that have a named target and a result. 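Primary screen; positive scores mean lost reporter signal, so the sign may be inverted from the usual convention.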 Names joined by + are all predicted targets of the reagent. No sequences are given here.

For Ptp10D [DRSC20272], the values are z-score, replicate 1 = -0.3; z-score, replicate 2 = -0.6.
After knock-down of CG15651 [DRSC04242], the screen gave z-score, replicate 1 = -0.4; z-score, replicate 2 = -0.6.
PolD2 [DRSC08147] showed z-score, replicate 1 = -0.3; z-score, replicate 2 = -0.6.
After knock-down of CG13358 [DRSC18534], the record shows z-score, replicate 1 = -0.3; z-score, replicate 2 = -0.1.
For E(z) [DRSC11147], the entry reads z-score, replicate 1 = 0; z-score, replicate 2 = -0.5.
After knock-down of Dip-B [DRSC16466], the record shows z-score, replicate 1 = -0.3; z-score, replicate 2 = -0.4.
CG16789 [DRSC15155] gave z-score, replicate 1 = -0.2; z-score, replicate 2 = -0.5.
After knock-down of Prosalpha4 [DRSC20271], the record shows z-score, replicate 1 = 1.3; z-score, replicate 2 = 2.4.
For Ppat-Dpck [DRSC09744] the deposit lists z-score, replicate 1 = -0.1; z-score, replicate 2 = -0.5.
Silencing of CG14823 [DRSC10194] came out at: z-score, replicate 1 = -0.1; z-score, replicate 2 = 0.2.
With knock-down of Mgat3 [DRSC01305] the results were z-score, replicate 1 = 0; z-score, replicate 2 = 0.
For CG14257 [DRSC14752] the deposit lists z-score, replicate 1 = -0.3; z-score, replicate 2 = -0.5.
Knock-down of CG7179 [DRSC03020] gave: z-score, replicate 1 = -0.2; z-score, replicate 2 = -0.2.
For Pdi [DRSC11250], the values are z-score, replicate 1 = -0.2; z-score, replicate 2 = -0.1.
Silencing of Gfrl [DRSC15197] gave: z-score, replicate 1 = -0.3; z-score, replicate 2 = -0.6.
Depletion of Gfrl [DRSC15199] came out at: z-score, replicate 1 = -0.3; z-score, replicate 2 = -0.1.
For Gfrl [DRSC15565] the deposit lists z-score, replicate 1 = -0.2; z-score, replicate 2 = -0.3.
Gfrl [DRSC15719] scored z-score, replicate 1 = -0.1; z-score, replicate 2 = -0.3.
Against Mur82C [DRSC12011], the values are z-score, replicate 1 = 1.4; z-score, replicate 2 = 0.9.
Against Mur82C [DRSC12212], the entry reads z-score, replicate 1 = -0.3; z-score, replicate 2 = -0.9.
For CG12609 [DRSC19473], the values are z-score, replicate 1 = -0.2; z-score, replicate 2 = 0.7.
For Vajk2 [DRSC02540], the entry reads z-score, replicate 1 = -0.2; z-score, replicate 2 = -0.4.
Depletion of nudC [DRSC11096] gave: z-score, replicate 1 = 1.2; z-score, replicate 2 = -0.3.
nudC [DRSC11097] gave z-score, replicate 1 = -0.4; z-score, replicate 2 = -0.8.
Knock-down of Sardh [DRSC06981] gave: z-score, replicate 1 = -0.2; z-score, replicate 2 = -0.8.
After knock-down of lncRNA:CR42862 + CG33229 [DRSC08497], the screen gave z-score, replicate 1 = -0.2; z-score, replicate 2 = 0.
Ppa [DRSC04598] gave z-score, replicate 1 = -0.3; z-score, replicate 2 = -0.3.
Knock-down of CG45002 [DRSC20144] came out at: z-score, replicate 1 = -0.2; z-score, replicate 2 = 0.2.
With knock-down of O-fut2 [DRSC18608] the results were z-score, replicate 1 = -0.1; z-score, replicate 2 = -0.3.
With knock-down of CG34012 [DRSC09089] the results were z-score, replicate 1 = 1.6; z-score, replicate 2 = 0.8.
For CG7720 [DRSC16306] the deposit lists z-score, replicate 1 = -0.3; z-score, replicate 2 = 0.
For CG7720 [DRSC16307], the values are z-score, replicate 1 = -0.7; z-score, replicate 2 = -0.4.
Depletion of CG5726 [DRSC06946] gave: z-score, replicate 1 = -0.3; z-score, replicate 2 = -0.6.
Knock-down of CG12883 [DRSC14570] gave: z-score, replicate 1 = -0.5; z-score, replicate 2 = -0.5.
For CG3662 [DRSC00626], the values are z-score, replicate 1 = -0.2; z-score, replicate 2 = -0.3.
Silencing of Cip4 [DRSC08091] resulted in: z-score, replicate 1 = -0.3; z-score, replicate 2 = -0.3.
With knock-down of Cip4 [DRSC08469] the results were z-score, replicate 1 = 0.1; z-score, replicate 2 = 0.4.
With knock-down of CG11882 [DRSC14425], the screen gave z-score, replicate 1 = 0.2; z-score, replicate 2 = 1.1.
Depletion of CG18294 [DRSC09891] gave: z-score, replicate 1 = -0.3; z-score, replicate 2 = -0.4.
For Cdk7 [DRSC18451], the entry reads z-score, replicate 1 = -0.1; z-score, replicate 2 = 1.2.

Reformatted: 4 of the entries above.
predicted target | dsRNA | z-score, replicate 1 | z-score, replicate 2
PolD2 | DRSC08147 | -0.3 | -0.6
CG13358 | DRSC18534 | -0.3 | -0.1
E(z) | DRSC11147 | 0 | -0.5
Dip-B | DRSC16466 | -0.3 | -0.4
